Reference: PubChem BioAssay AID493014 (National Center for Advancing Translational Sciences (NCATS), 2011)
In all, about 340,000 compounds went through this assay and about 170 (0.05%) were called active. The shares of active, inactive and inconclusive entries below differ from those in the screen. Calls come from the whole dose curve; as a rule, active = well fitted inhibition curve with a large enough effect in the signal ratio, with a control signal flat (not every such curve was filed as active); inconclusive = small, poorly fitted or top-dose-only effect, or effect the other way, or a change in a side signal; inactive = flat fitted curve, though single readings scatter; the % refers to the signal ratio. Potencies beside an inconclusive call are fits to weak or partial responses and may not hold up.

Assay: qHTS Assay to Find Inhibitors of Chronic Active B-Cell Receptor Signaling;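 for activity change, negative = inhibition: plate controls were basal doxycycline-induced cells for no effect and cells given 10 µM MG132 for full effect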
Details: ABC-DLBCL IkBa-CBG/CBR reporter, luminescence ratio (green luciferase fused to IkBa over red control in TMD8 lymphoma cells), 4 h; activity change, negative = inhibition: at 46.1 µM (top of the series)
Procedure, shortened: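 Concentration-response series (up to 46 uM) were applied to TMD8 dual-reporter cells for 4 h at 37C with doxycycline. Green/red ratio, after filter-overlap correction, defined %Activity; red signal alone was normalised to basal cells and zero luminescence.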
Potency is the fitted concentration of half-maximal effect.

**Q.** With `CCOc1ccc2c(c1)C(c1ccccc1)=NNC(c1ccccc1)=N2` as the compound, how does the Potency read?
**A.** inconclusive: 5.17 µM [falling, partial curve]

**Q.** Which Potency does the source give for `O=C(NCCc1ccccc1)c1ccc([N+](=O)[O-])cc1` here?
**A.** inconclusive: 17.8 µM [falling, single point]

**Q.** With `Cc1ccc2cc3c(NC(=O)c4ccco4)nn(CC(C)C)c3nc2c1` as the compound, how does the activity change, negative = inhibition read?
**A.** inactive

**Q.** With `COc1cccc(/C=N/NC(=S)Nc2cccc(C(=O)O)c2)c1O` as the compound, how does the activity change, negative = inhibition read?
**A.** inconclusive: 378%

**Q.** For `COC(=O)c1nnn(-c2ccc(Cl)c(Cl)c2)c1C(=O)OC`, which activity change, negative = inhibition is on record?
**A.** inactive

**Q.** For `CN(c1ccccc1)S(=O)(=O)c1cccc(NC(=O)c2cncc(Br)c2)c1`, which activity change, negative = inhibition is on record?
**A.** inconclusive: -0.333%

**Q.** For `CN1CCN(C(=O)c2ccc3c(Cl)c4c(nc3c2)CCCC4)CC1`, which activity change, negative = inhibition is on record?
**A.** inconclusive: -16.1%

**Q.** Which activity change, negative = inhibition does the source give for `COc1cccc(C(=O)NCc2ccc(-c3nc4ccccc4s3)cc2)c1` here?
**A.** inconclusive: 22.4%

**Q.** With `COc1ccc(-c2csc3nc(C)nc(N4CCCCC4)c23)cc1OC` as the compound, how does the Potency read?
**A.** inconclusive: 35.5 µM [falling, partial curve, poor fit]

**Q.** Which activity change, negative = inhibition does the source give for `N#Cc1c(C(F)(F)F)cc(-c2ccc(F)cc2)[nH]c1=O` here?
**A.** inactive

**Q.** With `O=C(O)c1ccc2c(=O)n3c(nc2c1)/C(=C/c1cccc(Cl)c1Cl)CCCC3` as the compound, how does the Potency read?
**A.** inconclusive: 3.26 µM [rising, partial curve, poor fit]

**Q.** With `COc1ccccc1-n1c(CNC(=O)c2cccc([N+](=O)[O-])c2C)n[nH]c1=S` as the compound, how does the Potency read?
**A.** inconclusive: 17.8 µM [falling, partial curve]

**Q.** For `COc1cccc2cc(C(=O)NCc3ccc(C)cc3)c(=O)oc12`, which Potency is on record?
**A.** inconclusive: 11.2 µM [falling, partial curve, poor fit]

**Q.** With `CCc1ccc(NC(=O)C2C3/C=C\CCCCC32)cc1` (configuration not stated) as the compound, how does the activity change, negative = inhibition read?
**A.** inconclusive: 7.94%

**Q.** For `O=C(CC1N=C2c3ccccc3N=C(SCc3ccccc3F)N2C1=O)NCCc1ccccc1` (configuration not stated), which activity change, negative = inhibition is on record?
**A.** inconclusive: -42.3%

**Q.** For `O=C(CSc1nc2ncc(Br)cc2[nH]1)Nc1ccccc1-c1ccccc1`, which activity change, negative = inhibition is on record?
**A.** inconclusive: -17%

**Q.** For `O=C(CCN1CCCCC1)c1ccccc1`, which activity change, negative = inhibition is on record?
**A.** inconclusive: 3.27%

**Q.** Which activity change, negative = inhibition does the source give for `CCC(CC)c1nnc(NC(=O)C2COc3ccccc3O2)s1` (configuration not stated) here?
**A.** inconclusive: 16.5%

**Q.** With `Clc1ccc(NCc2nnc3n2CCCCC3)cc1` as the compound, how does the activity change, negative = inhibition read?
**A.** inconclusive: -2.03%

**Q.** Which Potency does the source give for `COc1ccc(NC(=O)c2ccccc2NS(C)(=O)=O)cc1OC` here?
**A.** inconclusive: 20.6 µM [falling, single point]

**Q.** For `CCC(C)n1cnc2c(c1=O)c1nc3ccccc3nc1n2Cc1ccc(OC)cc1` (configuration not stated), which activity change, negative = inhibition is on record?
**A.** inconclusive: 4.99%

**Q.** For `Nc1nn2c(C(F)(F)F)cc(=O)[nH]c2c1N=Nc1cccc(F)c1`, which Potency is on record?
**A.** inconclusive: 17.8 µM [falling, partial curve, poor fit]
